Data published in PubChem BioAssay AID1347075 (National Center for Advancing Translational Sciences (NCATS), 2019).
The campaign covered roughly 400,000 compounds. About 5,500 (1.4%) were called active. This list was built around the results that the source calls inconclusive (neither active nor inactive); the mix of calls is not that of the screen. The call rests on the fitted dose curve; in most records, active means well fitted cell-killing curve with a large enough effect; inconclusive means small, poorly fitted or top-dose-only effect, or effect the other way; inactive means flat fitted curve, though single readings scatter. Potencies beside an inconclusive call are fits to weak or partial responses and may not hold up.

experiment: qHTS assay for MDR1-selective chemotherapeutics: Primary screen using the parental adenocarcinoma cell KB-3-1; details: KB-3-1 viability, CellTiter-Glo ATP luminescence, 72 h; activity change, negative = cytotoxic: at 46.1 µM (top of the series); further: nearly all actives have a fitted effect of over 60% in size
Summary of the method: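 Cytotoxicity measured as CellTiter-Glo luminescence after 72 h at 37 C. Compound titrations were pinned onto drug-naive KB-3-1 parental adenocarcinoma cells grown in DMEM with 10% FBS, and normalized data fitted to concentration-response curves.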
On the % scale 0 is the no-effect control and ±100 the full control effect; potency means the concentration at half of the fitted maximal effect.

Row | Compound | Potency | activity change, negative = cytotoxic
1 | CCCCCC(=O)Nc1nc2ccccc2[nH]1 | active: 23.1 µM | –
2 | CN(C)c1ccc(/C=C/c2ccnc3ccccc23)c(F)c1 | inconclusive: 14.6 µM [cytotoxic, partial curve, poor fit] | –
3 | CCCn1c(SCC(=O)NCc2ccc(Cl)cc2)n[nH]c1=O | inconclusive: 0.0103 µM [cytotoxic, full curve] | –
4 | O=C(C[C@H]1C[C@H](C(=O)N2CCOCC2)[C@@]2(CCC3CCCC3)c3[nH]c4cc(-c5ccco5)ccc4c3CCN2C1=O)NCCN1CCOCC1 | inconclusive: 32.6 µM [cytotoxic, single point] | –
5 | C(=C\c1ccccc1)/CN1CCN(C(c2cccs2)c2nnnn2Cc2ccccc2)CC1 (stereo unspecified) | inconclusive: 29.1 µM [cytotoxic, single point] | –
6 | O=C1CCC[C@@H]2CC(Nc3ccccc3)C[C@@H]3CCN1[C@H]23 (stereo partly specified) | – | inactive: 8.33%
7 | Cc1noc(C)c1-c1ccc2ncnc(NC(C)c3ccco3)c2c1 (stereo unspecified) | inconclusive: 3.26 µM [cytotoxic, full curve] | –
8 | COc1ccc(CC(=O)Nc2c(C(=O)N3CCN(c4ccccc4F)CC3)oc3ccccc23)cc1OC | inconclusive: 29.1 µM [cytotoxic, single point] | –
9 | CC(C)CC(=O)Nc1nc2ccc(S(C)(=O)=O)cc2s1 | – | inconclusive: -12.4%
10 | N#Cc1cc(-c2ccccc2)[nH]c1-c1nccc2ccccc12 | inconclusive: 29.1 µM [cytotoxic, single point] | –
11 | CCc1ccc2nc(N=C(N)N)nc(C)c2c1 | active: 23.1 µM | –
12 | COc1ccc(NC(=O)CSc2ccc(F)cc2)cc1S(=O)(=O)N1CCCCC1 | – | inactive: -77%
13 | Cc1ccccc1N1CCN(C(=O)c2cc(C3CC3)nn2-c2ccccc2)CC1 | inconclusive: 29.1 µM [cytotoxic, single point] | –
14 | COc1ccc(C(C(=O)NC2CCCCC2)N(C(=O)CCl)c2ccc(Cl)cc2)cc1 (stereo unspecified) | active: 5.8 µM | –
15 | N/C(=N\OC(=O)c1cc([N+](=O)[O-])ccc1Cl)c1cccnc1 | inconclusive: 29.1 µM [cytotoxic, single point] | –
16 | Cc1nc(N2CCN(C(=O)c3ccco3)CC2)c2c3c(sc2n1)CCC3 | inconclusive: 29.1 µM [cytotoxic, single point] | –
17 | O=S(=O)(c1ccccc1)c1cccc(S(=O)(=O)N2CCCCC2)c1 | inconclusive: 32.6 µM [cytotoxic, single point] | –
18 | O=C(O)CSc1cc(NS(=O)(=O)c2cccc([N+](=O)[O-])c2)c2ccccc2c1O | inconclusive: 18.4 µM [cytotoxic, single point] | –
19 | Cc1ccccc1CNC(=O)CCCn1ncn2c(cc3occc32)c1=O | inconclusive: 16.4 µM [rising, single point] | –
20 | O=C(CN1C=NS(=O)(=O)c2ccccc21)Nc1ccc(Br)cc1 | – | inactive: -0.174%
21 | O=C1C2=C(Nc3ccccc3SC2c2ccc(C(F)(F)F)cc2)c2ccccc21 (stereo unspecified) | inconclusive: 25.9 µM [cytotoxic, single point] | –
22 | NC(=S)N/N=C/c1ccc2c(c1)OCCO2 | inconclusive: 29.1 µM [cytotoxic, single point] | –
23 | N#CC1=C(N)NC(SCc2ccc(Cl)cc2)=C(C#N)C12CCCCC2 | inconclusive: 0.0116 µM [rising, full curve] | –

Row | Compound | Potency | activity change, negative = cytotoxic
24 | COCCn1c(=O)[nH]c2cc(C(=O)NCCN3CCN(c4ccc(OC)cc4)CC3)ccc2c1=O | – | inactive: -2.85%
25 | COc1cccc(C#Cc2ccc3c(c2)O[C@@H](CN(C)C(=O)c2ccccn2)[C@@H](C)CN([C@H](C)CO)S3(=O)=O)c1 | – | inactive: 4.5%
26 | COc1ccc(NC(=O)c2c(NC(=O)c3cccc(C)c3)sc3c2CCC3)cc1 | – | inactive: 8.43%
27 | O=C(Nc1ccccc1)OCCOc1ccc(Br)cc1 | – | inactive: 5.52%
28 | Cc1ccc(-c2csc3ncnc(N4CCN(C)CC4)c23)cc1C | – | inactive: 0.155%
29 | O=C1CC(=Nc2ccccc2)NN1c1ccccc1 | inconclusive: 29.1 µM [cytotoxic, single point] | –
30 | Cc1ccc(CCNC(=O)C2COc3ccccc3C2)cc1 (stereo unspecified) | – | inactive: -5.45%
31 | Cc1ccc(S(=O)(=O)NC(=O)Nc2ccc(N(C)C)cc2)cc1 | inconclusive: 10.3 µM [cytotoxic, partial curve, poor fit] | –
32 | COc1ccc(N2CCN(c3ncnc4c3nc3n4CCCCC3)CC2)cc1 | inconclusive: 14.6 µM [cytotoxic, partial curve] | –
33 | O=c1c2ccccc2nc(/C=C/c2ccc([N+](=O)[O-])o2)n1CCCO | active: 5.8 µM | –
34 | CCOc1cc(/C=N/N2CCN(Cc3ccccc3)CC2)ccc1O | inconclusive: 0.0411 µM [rising, full curve] | –
35 | O=C(COC(=O)c1nc(Cl)ccc1Cl)NCc1cccs1 | – | inactive: -6.35%
36 | COc1cc(C(C[N+](=O)[O-])c2c(-c3ccccc3)cc3ccccn23)cc(OC)c1OC (stereo unspecified) | inconclusive: 29.1 µM [cytotoxic, single point] | –
37 | COc1ccc(C(=O)c2ccc(Cl)c([N+](=O)[O-])c2)cc1 | active: 1.16 µM | –
38 | Cc1ccnc(SCC(=O)Nc2sc3c(c2C#N)CCCC3)n1 | inconclusive: 13 µM [cytotoxic, partial curve] | –
39 | COc1ccc(/C=C/c2c([N+](=O)[O-])c(=O)n(C)c(=O)n2C)c(OC)c1OC | inconclusive: 11.6 µM [cytotoxic, partial curve] | –
40 | Cc1ccc2c(c1)-c1onc(C(=O)N3CCN(c4cc(C)ccc4C)CC3)c1CO2 | – | inactive: 1.31%
41 | COc1cc(C2c3cc4c(cc3OC(NNC(N)=O)C2C)OCO4)cc(OC)c1OC (stereo unspecified) | active: 0.517 µM | –
42 | COc1ccc(O)c(/C=N/Nc2nc(C)cc(-c3ccccc3)n2)c1 | – | inactive: -1.24%
43 | O=C(O)c1nccnc1C(=O)Nc1ccccc1-c1ccccc1 | inconclusive: 29.1 µM [rising, single point] | –
44 | CCOCCOCN(C#N)c1nc(OC)nc(N(C)C)n1 | – | inactive: 12.2%
45 | Cc1nc(C(=O)NNC(=O)c2c(-c3c(Cl)cccc3Cl)noc2C)cs1 | inconclusive: 18.4 µM [cytotoxic, single point] | –
46 | CCc1[nH]c(=O)c(C#N)c2c1CCCC2 | inconclusive: 29.1 µM [cytotoxic, single point] | –

Copied from the list.
Entry for N#Cc1cc(-c2ccccc2)[nH]c1-c1nccc2ccccc12 under Potency: inconclusive: 29.1 µM [cytotoxic, single point]
Entry for N/C(=N\OC(=O)c1cc([N+](=O)[O-])ccc1Cl)c1cccnc1 under Potency: inconclusive: 29.1 µM [cytotoxic, single point]
